Results taken from PMC9989471, “The Key Roles of Mycobacterium tuberculosis FadD23 C-terminal Domain in Catalytic Mechanisms” (Frontiers in Microbiology, 2023).
No constants are given. Whether binding was seen depends on the method and setting. Tags and fused reporters may be left off the sequences shown.

Legend:
[1] = target: Mycobacterium tuberculosis FadD23 (fatty acyl AMP ligase FadD23), expressed in E. coli (Mycobacterium tuberculosis H37Rv) (UniProt P9WQ47); experiment: SEC; size exclusion chromatography of purified FadD23; both purified
[2] = target: Mycobacterium tuberculosis FadD23 (fatty acyl AMP ligase FadD23), expressed in E. coli (Mycobacterium tuberculosis H37Rv) (UniProt P9WQ47); experiment: AUC; analytical ultracentrifugation of purified FadD23; both purified

B1: Mycobacterium tuberculosis FadD23 (fatty acyl AMP ligase FadD23), expressed in E. coli (enzyme, UniProt P9WQ47 1-584)
chain: MVSLSIPSMLRQCVNLHPDGTAFTYIDYERDSEGISESLTWSQVYRRTLNVAAEVRRHAAIGDRAVILAPQGLDYIVAFLGALQAGLIAVPLSAPLGGASDERVDAVVRDAKPNVVLTTSAIMGDVVPRVTPPPGIASPPTVAVDQLDLDSPIRSNIVDDSLQTTAYLQYTSGSTRTPAGVMITYKNILANFQQMISAYFADTGAVPPLDLFIMSWLPFYHDMGLVLGVCAPIIVGCGAVLTSPVAFLQRPARWLQLMAREGQAFSAAPNFAFELTAAKAIDDDLAGLDLGRIKTILCGSERVHPATLKRFVDRFSRFNLREFAIRPAYGLAEATVYVATSQAGQPPEIRYFEPHELSAGQAKPCATGAGTALVSYPLPQSPIVRIVDPNTNTECPPGTIGEIWVHGDNVAGGYWEKPDETERTFGGALVAPSAGTPVGPWLRTGDSGFVSEDKFFIIGRIKDLLIVYGRNHSPDDIEATIQEITRGRCAAIAVPSNGVEKLVAIVELNNRGNLDTERLSFVTREVTSAISTSHGLSVSDLVLVAPGSIPITTSGKVRRAECVKLYRHNEFTRLDAKPLQASDL
binding [1]: no binding | binding [2]: no binding
